# PubChem BioAssay AID2685 (National Center for Advancing Translational Sciences (NCATS), 2010)
# Some of the results follow. Further columns of the screen follow, without active or inactive calls. Most of these compounds were active or inconclusive in the main read-out, so they are no random draw. Potencies come from curve fits of mixed quality, noted in brackets.
# Assay: qHTS Assay for Lipid Storage Modulators in Drosophila S3 Cells;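 on cell number change: cells counted by Cell Tracker Red CMTPX staining in the red channel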
# Settings: BODIPY lipid droplet fluorescence, 18-24 h; for cell number change: measured here: cell count max response, cells fed with added oleic acid
# Outline: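 Laser-scanning cytometry quantifies lipid droplet accumulation (500–530 nm total intensity; droplet/cell object ratio) in oleic acid-fed (400 uM added) Drosophila S3 cells treated with a concentration series. 20 uM Triacsin C defined 100% inhibition.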
# [1] = measured here: cell number channel AC50, cells fed with added oleic acid
# [2] = measured here: lipid fluorescence (Fed channel) AC50, cells fed with added oleic acid
Compound,cell number change,AC50 [1],AC50 [2]
CC(=O)Nc1ccc(N2C(=O)C3C4C=CC(CC4)C3C2=O)cc1 (centres undefined),9.91%,–,–
COC(=O)[C@]1(C)N[C@H](c2ccc(-c3ccc(Cl)c(Cl)c3)cc2)[C@@H]2C(=O)N(C)C(=O)[C@@H]21,-41.4%,"16.4 µM [falling, single point]",–
CCC1(C)Cc2ccccc2C(=O)N1 (centres undefined),12.9%,–,–
COc1cccc(NC(=O)c2cc3ccccc3o/c2=N\O)c1,-40.1%,"4.61 µM [falling, partial curve]","5.8 µM [falling, single point]"
O=C(O)Cc1ccc(-c2ccccc2-c2ccccc2)cc1,5.59%,–,"0.517 µM [rising, partial curve, poor fit]"
CC(C)(C)NCC(O)c1cc(O)cc(O)c1 (centres undefined),29%,"0.092 µM [rising, full curve, poor fit]","0.116 µM [rising, full curve, poor fit]"
CC(C)(C)C(O)CN1CCCC1 (centres undefined),27.1%,–,"0.206 µM [rising, full curve]"
O=C1Nc2ccccc2C12OCC(COc1ccc(Cl)cc1)O2 (centres undefined),-57.5%,"32.6 µM [falling, partial curve]",–
CCOc1ccc(/C=C(\C)C(=O)c2c(C)cc(C)[nH]c2=O)cc1,30.1%,"0.00461 µM [rising, full curve, poor fit]","29.1 µM [rising, single point]"
Cc1cccc(C)c1OCC(=O)Nc1ccc2c(c1)OCCO2,-4.32%,–,"3.66 µM [falling, full curve]"
Cc1ccccc1Nc1nc(N)nc(CN2CCN(C(=O)c3ccccc3)CC2)n1,–,"4.11 µM [rising, single point]",–
O=C(NCc1ccco1)/C(=C/c1ccc(Cl)cc1)NC(=O)c1ccco1,-22.9%,"2.06 µM [rising, partial curve, poor fit]",–
CSc1ccc(C2C(C#N)=C(N)N(c3ccccc3)C3=C2C(=O)CCC3)cc1 (centres undefined),4.7%,–,"0.82 µM [rising, full curve]"
COc1ccc(Cl)cc1C(=O)OCC(=O)N(CC(C)C)c1c(N)n(Cc2ccccc2)c(=O)[nH]c1=O,16.6%,–,"2.31 µM [rising, partial curve, poor fit]"
Cc1oc2ncnc(N)c2c1C,-4.97%,–,–
N#CC(C(=O)NCc1ccco1)c1nc2ccccc2nc1N1CCOCC1 (centres undefined),-9.79%,–,"4.61 µM [rising, full curve]"
Cc1cc(C(=O)Nc2sc(C)c(-c3ccc(F)cc3)c2C(N)=O)no1,15.5%,–,"4.11 µM [rising, partial curve, poor fit]"
COc1ccc(C(=O)N2CCN(CCNC(=O)C(=O)Nc3ccc(Br)cc3)CC2)cc1,7.43%,"3.66 µM [rising, single point]","29.1 µM [rising, single point]"
CCC(CO)Nc1ncnc2c1cnn2-c1ccc(OC)cc1 (centres undefined),-9.93%,–,"18.4 µM [falling, single point]"
Cc1ccc2c(c1)[C@H]1[C@H](CO2)[C@H](c2ccccc2)[C@]2(C)C(=O)NCC(=O)N12,17.4%,–,"0.517 µM [rising, partial curve]"
Cc1ccc(NC(=O)CN2CCCCCC2)cc1Br,–,–,"0.58 µM [falling, single point]"
Cc1ccccc1OCC(=O)N/N=C/c1ccc(Sc2nc3ccccc3s2)o1,–,"5.17 µM [rising, partial curve]","3.26 µM [rising, partial curve]"
CC(C)(C)c1csc(NC(=O)c2ccc(Cl)s2)n1,-38.4%,"4.61 µM [falling, single point]","29.1 µM [falling, single point]"
N#Cc1ccccc1OCC(=O)OCC(=O)NCc1ccc2c(c1)OCO2,29.5%,"2.91 µM [rising, full curve, poor fit]","5.17 µM [rising, partial curve, poor fit]"
Cc1cc(C)n(Cc2ccc(C(=O)NCc3ccco3)o2)n1,54.8%,"3.26 µM [rising, full curve, poor fit]","9.2 µM [rising, partial curve]"
COc1ccc(CN2C(=O)c3cccnc3C2=O)cc1S(=O)(=O)NCc1ccccc1,-16.4%,–,"6.51 µM [falling, single point]"
O=C(Nc1ccccc1N1CCCC1)c1ccc2c(c1)OCO2,58.3%,"1.46 µM [rising, partial curve]","0.58 µM [rising, single point]"
CCCCn1c(=O)[nH]c(=O)c2c1nc(COC(=O)c1c(C)noc1C)n2CCC,-19.4%,–,"0.517 µM [rising, full curve]"

# Entries listed so far that contain bromine (2):
Compound,cell number change,AC50 [1],AC50 [2]
COc1ccc(C(=O)N2CCN(CCNC(=O)C(=O)Nc3ccc(Br)cc3)CC2)cc1,7.43%,"3.66 µM [rising, single point]","29.1 µM [rising, single point]"
Cc1ccc(NC(=O)CN2CCCCCC2)cc1Br,–,–,"0.58 µM [falling, single point]"

# More results:

Compound,cell number change,AC50 [1],AC50 [2]
CN(C)S(=O)(=O)c1ccc(C(=O)OCCN=C2NS(=O)(=O)c3ccccc32)cc1,2.88%,–,"6.51 µM [rising, single point]"
Nc1nc2nc(-c3ccccc3)cc(=O)n2[nH]1,16.5%,–,"0.231 µM [falling, full curve, poor fit]"
COC(=O)c1ccccc1NS(=O)(=O)c1ccc(Cl)nc1,45.2%,"14.6 µM [rising, single point]",–
Cc1ccc(NC(=O)C2CCN(S(=O)(=O)c3ccc4c(c3)CCCC(=O)N4)CC2)c(Br)c1,0.76%,–,"10.3 µM [rising, partial curve]"
Cc1ccccc1N1C(=O)Cc2ccccc2C1=O,-5.88%,–,"0.206 µM [rising, single point]"
Cc1cc(C(=O)CCC(=O)N2CCN(S(=O)(=O)c3cccs3)CC2)c(C)s1,56.9%,"5.8 µM [rising, full curve]","0.651 µM [rising, single point]"
O=C(c1ccco1)N1CCN(C(=O)c2cccs2)CC1,-18.2%,–,"18.4 µM [falling, partial curve, poor fit]"
OCCN1CCN(c2nc(N3CCCCC3)nc(N3CCCCC3)n2)CC1,14.1%,"6.51 µM [rising, single point]",–
COC(=O)C12CCC3(SCCS3)C(C(=O)OC)(CCC13SCCS3)C2,-32.1%,"0.731 µM [falling, full curve, poor fit]","0.82 µM [falling, full curve, poor fit]"
Cc1ccccc1N/N=C/c1ccc(C#N)cc1,38.3%,"8.2 µM [rising, partial curve]","1.84 µM [rising, partial curve]"
CCn1c(=O)c(C(=O)Nc2ccc(C)cc2)c(O)c2ccccc21,17.9%,–,"23.1 µM [rising, single point]"
COc1ccc(/C=C/C(=O)OCC(=O)NC2CCCC2)c(OC)c1,-13.1%,–,"4.11 µM [falling, single point]"
O=C(CN(CCc1ccccc1)C(=O)Cn1nnc(-c2cccs2)n1)NCc1ccco1,6.98%,–,"8.2 µM [rising, partial curve]"
Nc1nc2nc(-c3cccs3)cc(C(F)(F)F)n2n1,-4.78%,–,"6.51 µM [falling, single point]"
CCC1(C)NC(=O)N(CC(=O)NCC(=O)Nc2c(C)cc(C)cc2C)C1=O (centres undefined),-0.775%,"0.411 µM [rising, full curve, poor fit]","0.259 µM [rising, full curve, poor fit]"
O=C(Nc1ccc(F)cc1)c1ccc(C(=O)N2CCOCC2)cc1,-0.656%,–,"0.0058 µM [falling, full curve, poor fit]"
O=C(COC(=O)c1ccc(S(=O)(=O)N2CCCCCC2)cc1)NCc1ccc(F)cc1,-62%,"18.4 µM [falling, single point]","29.1 µM [falling, partial curve]"
CC(=O)c1cccc(NC(=O)Cn2cnc(S(=O)(=O)N3CCOCC3)c2)c1,-0.943%,–,–
COc1ccc2c(c1)C1=NN(/C(C)=C/C(C)=O)C(c3ccc(F)cc3)C1CC2 (centres undefined),20.7%,–,"4.11 µM [falling, single point]"
CSc1ccc(CNC(=O)C2Cc3cc(S(=O)(=O)N4CCCC4)ccc3N2C(C)=O)cc1 (centres undefined),-22.7%,–,"29.1 µM [rising, single point]"
O=C(CCNS(=O)(=O)c1ccc(Br)cc1)NCc1ccc2c(c1)OCO2,0.304%,–,–
N#CCc1c(C#N)c(N)nc(N2CCN(S(=O)(=O)c3ccccc3F)CC2)c1C#N,42.7%,"25.9 µM [rising, single point]","29.1 µM [rising, single point]"
COc1ccc(NC(=O)Cn2nnc(C(=O)Nc3ccccc3C)c2N)cc1,41.1%,"14.6 µM [rising, partial curve, poor fit]","7.31 µM [rising, partial curve]"
CCc1cccc(C)c1NC(=O)CSc1nnc(-c2cc3cc(Br)ccc3o2)n1CC,–,"1.84 µM [rising, partial curve]","1.84 µM [rising, partial curve]"
CCc1nnc(NC(=O)CSc2nnc(-c3ccccc3OC)n2-c2ccc(C)cc2)s1,72.4%,"14.6 µM [rising, partial curve]",–
COc1cccc(CN2CCC(C(=O)N3CCN(c4ccccc4F)CC3)CC2)c1OC,18.3%,"0.00651 µM [rising, full curve, poor fit]","3.26 µM [falling, single point]"
Cc1ccc(CNC(=O)C2CCN(S(=O)(=O)c3ccc4c(c3)CC(C)N4C(=O)C3CC3)CC2)cc1 (centres undefined),19.7%,–,"29.1 µM [rising, single point]"
